Consider 63 molecules from PubChem BioAssay AID493014 (National Center for Advancing Translational Sciences (NCATS), 2011).

Structures are written as SMILES. The list shows a part of the results. The main result of the screen is listed elsewhere. These columns were measured beside it and carry no call. Compounds called inactive in the main read-out are mostly missing here. Potencies come from curve fits of mixed quality, noted in brackets.

The assay can be described thus: qHTS Assay to Find Inhibitors of Chronic Active B-Cell Receptor Signaling. The following applies: ABC-DLBCL IkBa-CBG/CBR reporter, luminescence ratio (green luciferase fused to IkBa over red control in TMD8 lymphoma cells), 4 h. Put shortly: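 TMD8 ABC-DLBCL cells carrying doxycycline-inducible green luciferase fused to IkappaBalpha plus unfused red luciferase were exposed to compounds (up to 46 uM) for 4 hrs at 37C. Activity came from the overlap-corrected green/red luminescence ratio.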
In general terms: Quantitative high-throughput screening tests each substance at several concentrations.

Where [1] appears, read: measured here: CBR red luminescence, cell number.

For the molecule `CN(C)CCOC(=O)C12CC3(C)CC(C)(CC(C)(C3)C1)C2`, the concentration at half-maximal activity (AC50) – broadly, the concentration giving half of the maximal activity seen – under setting [1] was 0.82 µM [falling, partial curve, poor fit]. The same measure, in the same setting: under `COc1ccc(C(C[N+](=O)[O-])c2c(-c3ccccc3)cc3ccccn23)c(OC)c1` (centres undefined) stands 6.51 µM [falling, partial curve, poor fit]; under `O=C(O)CCCC(=O)Nc1ccn(-c2ccccc2)n1`, 3.16 µM [falling, full curve]. The same measure, in the same setting: in the case of `CN(C)c1cc(N/N=C/c2ccc(Cl)cc2)nc(N(C)C)n1` it was 17.8 µM [rising, partial curve, poor fit]; in that of `O=C(OCCN1C(=O)c2cccc3c(N4CCOCC4)ccc(c23)C1=O)c1ccccc1Cl`, 20.6 µM [falling, single point]. On the same count and under the same terms, under `CCOC(=O)c1c(C)[nH]c(C)c1C(=O)COC(=O)/C=C/c1cccc(F)c1` stands 32.6 µM [rising, partial curve, poor fit]. As to `O=C(OCC(=O)N1CCCc2ccccc21)c1cnc(Cl)c(Cl)c1`, the AC50 under setting [1] was 2.31 µM [falling, partial curve, poor fit]. Consider `CCOc1ccc(C(=O)NCC(=O)OCC(=O)Nc2ccccc2OCC)cc1`, for which the concentration at half-maximal activity (AC50) under setting [1] is 32.6 µM [rising, single point]. On the same count and under the same terms, in the case of `Cc1c(C(=O)N2CCc3ccccc3C2)sc2nc(-c3ccccc3)cn12` it was 29.1 µM [falling, single point]; in that of `COC(=O)NCC(C)OC(=O)Nc1cccc(Cl)c1` (centres undefined), 3.16 µM [rising, single point]. On the same count and under the same terms, in the case of `O=C(Nc1ccccc1C(=O)O)c1ccc(Cl)c(S(=O)(=O)N2CCOCC2)c1` it was 7.08 µM [falling, partial curve].

Consider `Cc1ccc(C)c(NC(=O)c2cc(S(=O)(=O)N3CCN(c4cccc(Cl)c4)CC3)ccc2F)c1`, for which, under setting [1], the concentration at half-maximal activity (AC50) is 0.708 µM [rising, full curve, poor fit]. The same measure, in the same setting: under `CC1CCN(c2ccc3c(c2)S(=O)(=O)c2cccc(C(=O)NCc4cccc(F)c4)c2C3=O)CC1` stands 0.461 µM [falling, full curve, poor fit]; under `Cc1ccc(/C=N/Nc2ccc(C(=O)O)cc2)o1`, 0.112 µM [falling, full curve, poor fit]; under `COc1ccccc1CN(C)C(=O)c1ccccc1SCC(=O)N1CCCC1`, 1.16 µM [rising, full curve, poor fit]. On the same count and under the same terms, in the case of `CCc1ccc(NC(=O)C2CCC(CNC(=O)[C@@H]3Cc4ccccc4CN3)CC2)cc1` (some centres undefined) it was 14.1 µM [falling, partial curve, poor fit].

Turning to `COc1ccccc1NC(=O)CCC(=O)c1ccc(-c2ccccc2)cc1`, the AC50 under setting [1] was 25.9 µM [rising, single point].

Regarding `CC(=O)N(C)c1ccc(NC(=S)NC(=O)/C=C/c2ccco2)cc1`, the half-maximal activity concentration (AC50) under setting [1] is 35.5 µM [falling, single point]. On to `CC12CC(c3ccccc3O1)C(/C(N)=N/NC(=O)c1ccc(F)cc1)C(=O)N2` (centres undefined), for which the AC50 under setting [1] was 23.1 µM [falling, partial curve, poor fit]. Still for that read-out and setting: in the case of `c1ccc2c(SCc3cn4cccnc4n3)ncnc2c1` it was 17.8 µM [falling, single point]; in that of `C#CCOCCOCCOCCNc1nc(N2CCN(C(=O)CCCCCCCCCCNC(=O)Cn3cc(CCCCCN)nn3)CC2)nc(N2CCN(C(=O)CCCCCCCCCCNC(=O)[C@H](CO)n3cc(CCCSC)nn3)CC2)n1`, 20.6 µM [rising, single point]; in that of `COc1ccc(OC)c(NC(=O)N2CCCC(CNS(=O)(=O)c3cccs3)C2)c1` (centres undefined), 15.8 µM [falling, partial curve, poor fit]. `O=c1c2c3nc4ccccc4nc3n(/N=C/c3ccccn3)c2ncn1-c1ccccc1`: the AC50 under setting [1] was 1.78 µM [falling, full curve, poor fit]. Same read-out and setting: in the case of `O=C(NCc1ccccc1)C(=O)NCC1OCCN1S(=O)(=O)c1ccc2c(c1)OCCO2` (centres undefined) it was 23.1 µM [rising, single point]. On the same count and under the same terms, under `COC(=O)c1ccc(CO/N=C/c2ccc(OC)cc2)o1` stands 14.1 µM [falling, single point]. The same measure, in the same setting: under `CSc1ccccc1NC(=O)CN(C)CC(=O)Nc1c(F)cccc1F` stands 2.91 µM [rising, full curve, poor fit]. Take `COc1cc(OC)cc(C(=O)NCCSCc2ccc(Cl)cc2)c1`: the half-maximal activity concentration (AC50) under setting [1] was 15.8 µM [falling, single point]. In the case of `O=C1C(=C(c2ccccc2)c2ccccc2)Nc2ccccc21`, the half-maximal activity concentration (AC50) under setting [1] was 23.1 µM [falling, single point].

Regarding `O=C(Nc1nccs1)c1ccc(CSc2ccccc2)o1`, the AC50 under setting [1] was 10 µM [falling, partial curve, poor fit]. Same read-out and setting: in the case of `O=C(c1c(F)cccc1F)N1CCN(S(=O)(=O)c2ccc3c(c2)OCCO3)CC1` it was 16.4 µM [falling, partial curve, poor fit]; in that of `Cc1cccc(-c2nc(CSCC(=O)N3CCN(c4ccccn4)CC3)c(C)o2)c1`, 11.2 µM [falling, partial curve, poor fit]; in that of `O=S(=O)(NC1CCC(NS(=O)(=O)c2c(F)cccc2F)CC1)c1ccc2c(c1)OCCO2` (centres undefined), 23.1 µM [rising, single point]. On to `O=C(NNC(=O)c1cccs1)c1ccccc1`, for which the AC50 under setting [1] was 25.1 µM [falling, single point].

Consider `O=C(NC(=S)Nc1ccccc1Cl)C1CC1`, for which the concentration at half-maximal activity (AC50) by setting is: under setting [1], 8.91 µM [falling, partial curve]; (measured here: IkBa-CBG green luminescence) 12.6 µM [falling, partial curve, poor fit]. For `CSc1ccccc1NC(=O)Nc1ccc(F)c(Cl)c1`, under setting [1], the AC50 was 0.316 µM [falling, full curve, poor fit]. With `COc1ccc(CCNC(=S)Nc2cccc(C)c2)cc1`, the concentration at half-maximal activity (AC50) under setting [1] is 0.731 µM [rising, full curve, poor fit]. Still for that read-out and setting: under `CCn1c(-c2cc(-c3cccc(OC)c3)nc3ccccc23)n[nH]c1=S` stands 32.6 µM [falling, single point]; under `CC12CCC(C(=O)Nc3ccccc3Br)(C/C1=N\O)C2(C)C` (centres undefined), 11.2 µM [rising, partial curve, poor fit]. The same measure, in the same setting: in the case of `COC(=O)c1c(NC(=O)CS(=O)(=O)c2ccccc2)sc(C)c1C` it was 1.46 µM [falling, full curve]; in that of `CCCCCC(=O)N/N=C/c1ccco1`, 1.64 µM [rising, full curve, poor fit]. On the same count and under the same terms, in the case of `O=C1CC(c2c[nH]c3ccccc23)C(=O)N1` (centres undefined) it was 29.1 µM [falling, single point]; in that of `COc1ccc(OC)c(S(=O)(=O)NNC(=S)Nc2ccc3c(c2)OCO3)c1`, 0.355 µM [rising, full curve, poor fit]. As for `COc1cccc(C2=NN(C(=O)c3ccco3)C(O)(C(F)(F)F)C2)c1` (centres undefined), the concentration at half-maximal activity (AC50) under setting [1] is 11.2 µM [falling, partial curve, poor fit]. Turning to `CC1(c2ccccc2)NC(=O)N(CC(=O)NNC(=O)c2cccc(Cl)c2)C1=O` (centres undefined), under setting [1], the half-maximal activity concentration (AC50) is 0.517 µM [rising, partial curve, poor fit]. Still for that read-out and setting: under `Cc1cc(C)n(-c2nc(Nc3ccccc3C)nc(-n3nc(C)cc3C)n2)n1` stands 0.631 µM [falling, full curve, poor fit]; under `CCCCC(=O)Nc1cc(C(=O)NCCc2ccccc2)ccc1Cl`, 35.5 µM [falling, single point]; under `CC(C)S(=O)(=O)N1CCCC(C(=O)c2cccc(Cl)c2)C1` (centres undefined), 12.6 µM [rising, partial curve, poor fit].

Consider `CCN1C(=O)S/C(=C\c2ccc(N3CCOCC3)cc2C)C1=O`, for which, under setting [1], the AC50 was 0.708 µM [rising, full curve, poor fit]. Same read-out and setting: under `Cc1nc(N)sc1C(=O)NN` stands 0.631 µM [falling, partial curve, poor fit]; under `CCOC(=O)c1cc(-c2cccs2)[nH]n1`, 1.58 µM [rising, partial curve, poor fit]; under `O=C(O)c1ccccc1N/N=C\c1ccnc2ccccc12`, 0.1 µM [rising, full curve, poor fit]. The same measure, in the same setting: in the case of `CC(C)Oc1ccc(C(=O)Nc2ccc3c(c2)n(C)c(=O)n3C)cc1` it was 14.1 µM [rising, single point]. Still for that read-out and setting: under `Cc1ccc(Cn2c(SCC(=O)N/N=C/c3ccc(C)o3)nc3ccccc32)cc1` stands 16.4 µM [falling, partial curve, poor fit]; under `COc1cc(C(=O)COC(=O)C2CCN(c3ccc(C(F)(F)F)cn3)CC2)ccc1OC(F)F`, 29.1 µM [rising, single point]. With `Cc1ccc(-c2nc(N)sc2CC(=O)OCC(=O)NCCC(C)C)cc1`, under setting [1], the AC50 was 1.3 µM [rising, partial curve, poor fit]. On to `N=C1C(c2nc3ccccc3s2)=C(O)CN1CCCO`, for which, under setting [1], the concentration at half-maximal activity (AC50) was 0.206 µM [rising, full curve, poor fit]. Turning to `CCOC(=O)c1nnn(-c2nn3nnnc3c3ccccc23)c1C`, the AC50 under setting [1] is 35.5 µM [falling, single point]. The same measure, in the same setting: in the case of `CCOC(=O)c1c(-c2ccccc2)oc2ccc(O)c(CN3CCOCC3)c12` it was 0.082 µM [rising, full curve, poor fit]. Same read-out and setting: under `CCCC(=O)Nc1nnc(SCC)s1` stands 1.84 µM [rising, partial curve]; under `Cc1cccc2sc(NC(=O)CCNS(=O)(=O)c3cccs3)nc12`, 7.08 µM [falling, full curve, poor fit]; under `O=C(Nc1ccc([N+](=O)[O-])cc1)c1ccccc1F`, 15.8 µM [falling, partial curve, poor fit].

For `CCOC(=O)N1CCN(S(=O)(=O)c2c(C)[nH]c(=O)[nH]c2=O)CC1`, under setting [1], the half-maximal activity concentration (AC50) was 1.03 µM [rising, full curve, poor fit].

For the molecule `Cc1ccc(S(=O)(=O)N2CCN(C(=O)c3ccccc3OCc3c(C)noc3C)CC2)cc1C`, the half-maximal activity concentration (AC50) under setting [1] was 23.1 µM [falling, partial curve, poor fit].
